These are yes or no findings as the source states them, for the method shown. Binding seen in cells or lysates may run through a third protein. Binding can be weak; no strength is given. For part of these data: Where a sequence is shown, tags or fusion partners need not be part of it.
How the values were obtained:
myc-BRMS1 = biological target: T1, myc-BRMS1 (UniProt Q9HCU9); test: co-IP; HEK293 cells transiently transfected with FLAG-tagged ARID4B (AKR or DBA) and myc-BRMS1; anti-myc immunoprecipitation, overnight at 4°C; FLAG-ARID4B by western blot
T1 sequence: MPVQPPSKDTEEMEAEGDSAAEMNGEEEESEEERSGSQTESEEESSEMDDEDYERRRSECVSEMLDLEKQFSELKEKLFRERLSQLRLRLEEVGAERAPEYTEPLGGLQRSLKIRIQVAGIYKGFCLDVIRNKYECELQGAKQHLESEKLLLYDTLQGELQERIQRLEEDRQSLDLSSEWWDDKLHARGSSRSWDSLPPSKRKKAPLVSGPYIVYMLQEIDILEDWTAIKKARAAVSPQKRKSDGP

Amino acid sequences for entries named in this document (tags omitted). A change or cut given only in a name is not applied to a line headed by its entry.
UniProt A2CG63: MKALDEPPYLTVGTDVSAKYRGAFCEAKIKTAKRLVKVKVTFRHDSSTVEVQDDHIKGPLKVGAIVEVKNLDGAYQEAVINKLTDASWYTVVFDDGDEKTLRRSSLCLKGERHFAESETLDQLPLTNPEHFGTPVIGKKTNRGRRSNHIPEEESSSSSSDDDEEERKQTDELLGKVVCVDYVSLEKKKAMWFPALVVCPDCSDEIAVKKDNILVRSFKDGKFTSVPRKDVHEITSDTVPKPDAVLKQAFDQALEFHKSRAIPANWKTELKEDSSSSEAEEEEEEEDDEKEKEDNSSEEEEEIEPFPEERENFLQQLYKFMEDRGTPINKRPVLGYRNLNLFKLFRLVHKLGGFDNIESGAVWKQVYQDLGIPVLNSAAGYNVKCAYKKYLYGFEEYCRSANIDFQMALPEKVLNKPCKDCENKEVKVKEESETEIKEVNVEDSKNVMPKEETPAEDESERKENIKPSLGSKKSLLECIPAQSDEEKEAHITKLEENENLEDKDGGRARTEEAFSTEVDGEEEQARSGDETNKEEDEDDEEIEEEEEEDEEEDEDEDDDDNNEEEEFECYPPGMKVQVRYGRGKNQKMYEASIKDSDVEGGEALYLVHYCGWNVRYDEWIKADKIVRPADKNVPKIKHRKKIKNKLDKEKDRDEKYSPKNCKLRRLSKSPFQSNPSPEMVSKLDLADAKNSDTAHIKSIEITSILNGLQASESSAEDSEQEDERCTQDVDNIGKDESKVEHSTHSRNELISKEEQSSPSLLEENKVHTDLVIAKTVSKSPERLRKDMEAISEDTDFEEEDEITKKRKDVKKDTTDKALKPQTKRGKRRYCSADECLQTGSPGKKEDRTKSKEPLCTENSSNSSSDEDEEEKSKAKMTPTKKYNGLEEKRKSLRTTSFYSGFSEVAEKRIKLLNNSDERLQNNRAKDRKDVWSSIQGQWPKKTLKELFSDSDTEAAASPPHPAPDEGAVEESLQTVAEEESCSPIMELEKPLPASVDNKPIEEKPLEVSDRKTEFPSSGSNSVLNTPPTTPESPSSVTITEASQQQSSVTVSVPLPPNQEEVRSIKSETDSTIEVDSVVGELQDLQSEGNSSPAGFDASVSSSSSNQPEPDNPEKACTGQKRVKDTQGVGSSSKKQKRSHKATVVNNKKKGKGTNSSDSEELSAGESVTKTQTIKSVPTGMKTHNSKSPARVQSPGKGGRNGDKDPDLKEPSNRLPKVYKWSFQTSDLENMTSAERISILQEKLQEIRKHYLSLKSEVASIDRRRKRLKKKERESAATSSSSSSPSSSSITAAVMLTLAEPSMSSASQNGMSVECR

[1] = biological target: V5-tagged ARID4B, AKR allele (mouse) (UniProt A2CG63); test: co-IP; HEK293 cells transiently transfected with V5-tagged ARID4B (AKR or DBA allele); anti-V5 immunoprecipitation from lysate in mild IP lysis buffer (25 mM Tris-HCl pH 7.4, 150 mM NaCl, 1 mM EDTA, 1% NP-40, 5% glycerol), overnight at 4°C; endogenous mSIN3A and mSDS3 by western blot, densitometry of triplicate
[2] = biological target: FLAG-tagged ARID4B, AKR allele (mouse) (UniProt A2CG63); test: co-IP; HEK293 cells transiently transfected with FLAG-tagged ARID4B (AKR or DBA) and HA-BRMS1; anti-FLAG immunoprecipitation, overnight at 4°C; HA-BRMS1 by western blot

“FLAG-tagged ARID4B, AKR allele (from UniProt A2CG63-1)” was tested, and the binding (myc-BRMS1) was “binds”.

B1: mSDS3 (endogenous) (protein, UniProt Q9H7L9 1-328)
chain: MSAAGLLAPAPAQAGAPPAPEYYPEEDEELESAEDDERSCRGRESDEDTEDASETDLAKHDEEDYVEMKEQMYQDKLASLKRQLQQLQEGTLQEYQKRMKKLDQQYKERIRNAELFLQLETEQVERNYIKEKKAAVKEFEDKKVELKENLIAELEEKKKMIENEKLTMELTGDSMEVKPIMTRKLRRRPNDPVPIPDKRRKPAPAQLNYLLTDEQIMEDLRTLNKLKSPKRPASPSSPEHLPATPAESPAQRFEARIEDGKLYYDKRWYHKSQAIYLESKDNQKLSCVISSVGANEIWVRKTSDSTKMRIYLGQLQRGLFVIRRRSAA
With B1 the binding [1] was “binds”.

B2: HA-BRMS1 (protein, UniProt Q9HCU9 1-246)
chain: T1 sequence
With B2 the binding [2] was “binds”.

From article PMC3364935
